Paper doi:10.1101/2024.06.20.599911 (bioRxiv, 2024)

By UniProt entry, the sequences of proteins in these tests, tags left out. Where a name states a change or a piece, a line headed by the entry shows the natural chain unless it says otherwise.
UniProt Q9C7D7: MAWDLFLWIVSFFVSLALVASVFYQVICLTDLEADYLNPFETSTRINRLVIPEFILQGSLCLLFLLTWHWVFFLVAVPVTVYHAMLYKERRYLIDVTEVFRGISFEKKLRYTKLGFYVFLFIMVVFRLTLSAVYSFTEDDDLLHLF
UniProt Q8GWT5: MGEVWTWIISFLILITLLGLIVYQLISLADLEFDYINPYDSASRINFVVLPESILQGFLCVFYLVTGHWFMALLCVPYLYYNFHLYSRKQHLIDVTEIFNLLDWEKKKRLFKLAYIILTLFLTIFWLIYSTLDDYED
UniProt Q84W04: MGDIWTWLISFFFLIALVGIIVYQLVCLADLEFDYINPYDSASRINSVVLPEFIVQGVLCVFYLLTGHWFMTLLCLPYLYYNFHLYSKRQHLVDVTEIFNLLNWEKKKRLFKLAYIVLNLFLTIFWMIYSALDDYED

What was measured:
[1] = target: T1, AtPHT1;1-CubPLV (Arabidopsis thaliana) (UniProt Q8VYM2); experiment: two-hybrid
T1 sequence: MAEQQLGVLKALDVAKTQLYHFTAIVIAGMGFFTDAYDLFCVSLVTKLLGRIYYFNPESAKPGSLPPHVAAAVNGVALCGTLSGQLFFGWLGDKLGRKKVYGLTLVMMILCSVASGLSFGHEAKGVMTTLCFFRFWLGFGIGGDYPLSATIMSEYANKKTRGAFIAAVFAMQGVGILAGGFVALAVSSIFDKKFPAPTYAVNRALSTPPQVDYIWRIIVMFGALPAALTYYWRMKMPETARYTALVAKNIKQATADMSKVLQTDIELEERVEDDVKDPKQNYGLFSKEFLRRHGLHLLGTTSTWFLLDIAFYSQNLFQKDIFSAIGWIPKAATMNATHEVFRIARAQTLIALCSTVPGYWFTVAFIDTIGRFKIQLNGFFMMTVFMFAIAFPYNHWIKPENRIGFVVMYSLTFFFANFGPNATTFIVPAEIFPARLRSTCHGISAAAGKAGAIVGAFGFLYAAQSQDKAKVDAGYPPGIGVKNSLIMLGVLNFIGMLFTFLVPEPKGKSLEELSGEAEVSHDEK

[2] = target: T2, AtPHF1-CubPLV (Arabidopsis thaliana) (UniProt Q8GYE0); experiment: two-hybrid
T2 sequence: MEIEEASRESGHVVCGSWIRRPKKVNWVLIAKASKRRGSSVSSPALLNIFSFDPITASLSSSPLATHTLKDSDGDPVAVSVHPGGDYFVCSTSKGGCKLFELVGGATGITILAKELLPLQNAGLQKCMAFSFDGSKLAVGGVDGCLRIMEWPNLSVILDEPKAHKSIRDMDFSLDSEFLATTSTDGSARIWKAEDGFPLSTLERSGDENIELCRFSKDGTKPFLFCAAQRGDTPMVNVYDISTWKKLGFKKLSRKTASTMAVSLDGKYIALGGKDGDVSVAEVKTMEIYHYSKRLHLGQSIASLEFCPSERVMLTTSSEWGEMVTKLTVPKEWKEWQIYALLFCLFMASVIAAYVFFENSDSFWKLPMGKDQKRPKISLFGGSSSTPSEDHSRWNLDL

Substance	binding [1]	binding [2]
NubG-AtCNIH1 (from UniProt Q9C7D7)	binds	binds
NubG-AtCNIH3 (from UniProt Q8GWT5)	binds	binds
NubG-AtCNIH4 (from UniProt Q84W04)	binds	binds

These are yes or no findings as the source states them, for the method shown. Binding calls can cover weak binding; strength is not graded here.
